# Values quoted from earlier work in patent publication US5340829A, “Immunoregulatory agents” (priority 1992, dated 1994).
# At least one compound was matched to its structure with a doubt left.
# Molecular target: aldose reductase
# Details: approximate molar concentration necessary for 50% inhibition of aldose reductase; cited from earlier work
compound,measurement,value
"O=C1NC(=O)C(c2ccccc2)(c2ccccc2)N1 [Diphenylhydantoin, diphenylhydantoin]",IC50,~100 µM
